Results as given in PubChem BioAssay AID438 (Columbia University Molecular Screening Center, 2006).
This is one part of the list.

test: inhibitors of TNFa-induced NFkB p65 translocation, primary screen, imaging, HUVEC, MLSMR starter and 10KST1 sets (AID 438); settings: HUVEC TNFa-induced p65 nuclear translocation, measured here: nuclei count (cytotoxicity indicator), at 2.08 µM;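 further: compound added about 3h40 before a 20 min TNFalpha stimulation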

Row | SMILES | cell count
1 | Fc1ccccc1NC1CCN(Cc2ccccc2)CC1 | 286
